Taken from: PubChem BioAssay AID602196 (INSERM, 2012)
Aim: 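Modifiers of cisplatin sensitivity in A549 cells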. System: human A549 lung cancer cells. Reagents: siRNA pair against human genes. Duration: 48 h transfection before cisplatin; time from cisplatin to read-out not stated. Treatment: cisplatin at a dose killing half of control-siRNA cells; exact dose and duration not given. Measured: 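Cisplatin cell death as a shift from the 50% death seen with control siRNA; siRNAs toxic or growth-blocking alone scored 0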. Direction: two-siRNA summed score (-2 to +2): higher = both siRNAs protect from cisplatin killing; -2 means both sensitise; mean protection from cisplatin (shift in death) and protection from cisplatin (shift in death), siRNA C and protection from cisplatin (shift in death), siRNA D: higher = protection from cisplatin killing. Call rule: 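Each siRNA scores 0 if harmful alone by LDH or WST-1, otherwise +1 if it reduces and -1 if it increases cisplatin killing; a gene is active when both siRNAs agree (sum +2 or -2)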. Meaning of the calls: active = both siRNAs shift cisplatin killing the same way; inactive = no consistent shift, or siRNA harmful alone.
This is one part, drawn at random, of about 23,000 deposited reagents. 455 of them (2%) were called active. 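Active includes both protection and sensitisation; some change values fall well beyond the stated -50 to +50 range.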 A number with no mark means an inactive call. Not given: the amount of reagent.

| target | PubChem SID | two-siRNA summed score (-2 to +2) | mean protection from cisplatin (shift in death) (%) | protection from cisplatin (shift in death), siRNA C (%) | protection from cisplatin (shift in death), siRNA D (%) |
| --- | --- | --- | --- | --- | --- |
| HSD3B7 | SID131516523 | 0 | 11 | 10.5 | 11.5 |
| CNTN3 | SID131515397 | 0 | 9.1 | -0.9 | 19.1 |
| KCNK16 | SID131522914 | 1 | 48.6 | 22.5 | 74.8 |
| TBK1 | SID131519752 | 1 | 7.3 | 15.6 | -1.1 |
| SCEL | SID131520705 | 1 | 10.9 | 18.1 | 3.6 |
| DHRS12 | SID131505132 | 0 | -3.7 | -3.3 | -4 |
| CSNK1A1L | SID131521307 | 1 | 12.9 | 15.7 | 10.2 |
| LOC442276 | SID131516409 | 0 | 10.8 | 11.1 | 10.5 |
| TGDS | SID131507504 | 0 | -0.1 | 8.1 | -8.2 |
| NOX5 | SID131504891 | 0 | -4.2 | -3.2 | -5.2 |
| PLPP7 | SID131507381 | 0 | -0.2 | -0.7 | 0.2 |
| SAPCD2 | SID131501220 | -1 | -11.3 | -16.8 | -5.8 |
| WWOX | SID131503529 | 0 | -9.4 | -10.3 | -8.4 |
| LOC391241 | SID131518798 | 0 | 28 | 15.3 | 40.7 |
| CTNND2 | SID131507368 | 0 | -0.2 | -5.8 | 5.4 |
| GRK7 | SID131521032 | 1 | 11.9 | 9.8 | 14.1 |
| NRG2 | SID131512481 | 0 | 5.5 | 19.8 | -8.8 |
| NKX6-3 | SID131503497 | 0 | -9.6 | -18.5 | -0.6 |
| CMTR1 | SID131503352 | 0 | -10.7 | -11.6 | -9.8 |
| RBX1 | SID131503779 | 0 | -7.8 | -8.8 | -6.9 |
| ARHGAP9 | SID131508016 | 0 | 0.5 | 2.5 | -1.5 |
| LOC402100 | SID131521402 | 1 | 13.3 | 14.3 | 12.3 |
| STEAP1 | SID131503978 | 0 | -6.9 | -3.3 | -10.6 |
| LOC440852 | SID131518557 | 0 | 21.6 | 38.9 | 4.3 |
| CYP24A1 | SID131509318 | 0 | 2 | -6 | 10 |
| ALS2 | SID131517621 | 0 | 14.1 | -5 | 33.2 |
| LOC441956 (retired record) | SID131512556 | 0 | 5.6 | 8.4 | 2.8 |
| GPS2 | SID131510452 | 0 | 3.3 | 27.4 | -20.9 |
| LOC391124 | SID131519657 | 1 | 6.8 | 15.1 | -1.5 |
| ANKRD11 | SID131505389 | 0 | -3.2 | -5.2 | -1.2 |
| CHRNA2 | SID131508611 | 0 | 1.3 | 5.8 | -3.3 |
| GIGYF1 | SID131502350 | -1 | -3.2 | -25.5 | 19.1 |
| TRIP10 | SID131520765 | 1 | 11 | 7.6 | 14.5 |
| LOC284393 | SID131518174 | 0 | 17.1 | 25.5 | 8.6 |
| LOC441443 | SID131511724 | 0 | 4.7 | 1.7 | 7.7 |
| SLAIN2 | SID131516152 | 0 | 10.3 | 10.8 | 9.9 |
| LOC149620 | SID131511425 | 0 | 4.3 | 14.9 | -6.3 |
| ZNF516-DT | SID131511890 | 0 | 4.9 | 6.7 | 3 |
| ZDHHC4 | SID131517167 | 0 | 12.6 | 22.5 | 2.7 |

Just “two-siRNA summed score (-2 to +2)”, for 4 of the entries above:
PLPP7 [SID131507381] = 0
SAPCD2 [SID131501220] = -1
WWOX [SID131503529] = 0
LOC391241 [SID131518798] = 0
